Results on six substances are retold here after paper PMC11277477.

Protein sequences, listed by entry. Tags and fused reporters are not part of them. Lines headed by an entry give the natural chain unless they say otherwise; changes in a name come on top.
UniProt B1N2F9: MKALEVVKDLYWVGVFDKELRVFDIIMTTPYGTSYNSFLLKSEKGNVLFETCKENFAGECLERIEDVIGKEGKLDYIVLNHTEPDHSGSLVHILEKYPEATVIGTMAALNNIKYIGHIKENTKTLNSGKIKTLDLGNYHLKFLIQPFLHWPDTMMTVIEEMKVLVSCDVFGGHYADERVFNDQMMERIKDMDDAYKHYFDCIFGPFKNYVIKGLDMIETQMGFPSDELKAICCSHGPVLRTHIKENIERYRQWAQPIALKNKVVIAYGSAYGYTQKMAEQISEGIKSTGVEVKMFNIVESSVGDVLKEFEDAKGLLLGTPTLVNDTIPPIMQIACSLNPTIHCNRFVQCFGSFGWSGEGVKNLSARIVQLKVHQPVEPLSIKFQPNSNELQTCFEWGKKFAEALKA
UniProt C4M1S6: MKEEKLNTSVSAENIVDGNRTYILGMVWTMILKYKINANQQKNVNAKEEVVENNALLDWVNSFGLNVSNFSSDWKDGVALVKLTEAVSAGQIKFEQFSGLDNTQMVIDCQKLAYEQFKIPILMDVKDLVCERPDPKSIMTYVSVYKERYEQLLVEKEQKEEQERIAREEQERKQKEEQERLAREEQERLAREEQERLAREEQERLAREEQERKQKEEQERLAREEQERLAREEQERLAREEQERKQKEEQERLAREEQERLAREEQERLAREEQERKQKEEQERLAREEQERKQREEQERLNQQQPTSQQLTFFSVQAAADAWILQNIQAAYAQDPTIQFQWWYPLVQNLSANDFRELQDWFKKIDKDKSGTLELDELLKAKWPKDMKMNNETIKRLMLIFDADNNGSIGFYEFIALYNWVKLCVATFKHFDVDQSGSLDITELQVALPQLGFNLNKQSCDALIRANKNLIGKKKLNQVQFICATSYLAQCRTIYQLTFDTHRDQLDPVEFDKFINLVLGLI
UniProt C4LU56: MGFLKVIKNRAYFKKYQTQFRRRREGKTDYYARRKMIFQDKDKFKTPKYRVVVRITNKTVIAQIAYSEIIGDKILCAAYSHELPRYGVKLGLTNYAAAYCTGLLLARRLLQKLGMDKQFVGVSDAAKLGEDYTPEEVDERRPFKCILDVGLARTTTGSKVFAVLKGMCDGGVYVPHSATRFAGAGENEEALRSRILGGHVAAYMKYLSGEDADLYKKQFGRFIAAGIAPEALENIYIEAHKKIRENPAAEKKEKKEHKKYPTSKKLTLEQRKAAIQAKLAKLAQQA
UniProt A0A8U0WPG2: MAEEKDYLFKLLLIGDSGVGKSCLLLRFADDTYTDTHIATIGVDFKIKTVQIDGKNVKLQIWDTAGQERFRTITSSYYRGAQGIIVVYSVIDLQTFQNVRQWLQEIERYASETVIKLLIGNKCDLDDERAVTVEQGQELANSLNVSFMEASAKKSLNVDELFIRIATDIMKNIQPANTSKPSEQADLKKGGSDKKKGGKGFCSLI
UniProt B1N3T3: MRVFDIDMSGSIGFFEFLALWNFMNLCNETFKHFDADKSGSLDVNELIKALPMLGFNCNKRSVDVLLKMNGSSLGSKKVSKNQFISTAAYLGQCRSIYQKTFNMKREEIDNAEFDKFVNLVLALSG

No constants are given. Whether binding was seen depends on the method and setting. Binding seen in cells or lysates may run through a third protein. Here binding means that the protein was enriched with, or labelled near, the bait; the list need not be complete. For some of these results: Tags and fused reporters may be left off the sequences shown.

What all share (assay): affinity purification with mass spectrometry; GST-tagged bait (or GST control) bound to glutathione-Sepharose (200 μg) incubated with total trophozoite lysate (2 mg), 4 h, 4 °C; SDS-PAGE, silver stain, bands cut, nano UPLC-QToF; hits with reliability above 95%; only the target purified
For assay [1], the target named is T1, GST-Adh recombinant protein (E. histolytica).
T1 sequence: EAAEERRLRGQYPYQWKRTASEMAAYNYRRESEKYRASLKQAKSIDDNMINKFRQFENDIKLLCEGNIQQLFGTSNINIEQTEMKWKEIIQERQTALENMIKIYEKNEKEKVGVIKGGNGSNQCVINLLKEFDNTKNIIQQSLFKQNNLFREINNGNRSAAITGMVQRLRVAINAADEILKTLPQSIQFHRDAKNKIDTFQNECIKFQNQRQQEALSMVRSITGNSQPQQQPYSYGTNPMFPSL

The target in assay [2] is GST-EhADH recombinant protein (E. histolytica).
For assay [3], the target named is T2, GST-Linker recombinant protein (E. histolytica).
T2 sequence: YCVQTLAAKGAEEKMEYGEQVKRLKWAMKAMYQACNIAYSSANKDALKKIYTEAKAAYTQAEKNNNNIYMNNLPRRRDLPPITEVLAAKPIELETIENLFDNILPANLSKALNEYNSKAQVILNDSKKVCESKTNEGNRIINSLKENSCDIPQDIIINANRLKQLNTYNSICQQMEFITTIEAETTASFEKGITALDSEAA

Take “Flavoprotein type A (from UniProt B1N2F9) (enzyme)”: the binding entry in assay [1] is “binds”. “Actinin-like protein (from UniProt C4M1S6)”: the binding entry in assay [2] was “binds”.

Consider “60S ribosomal protein L5 (from UniProt C4LU56)”, for which the binding entry in assay [1] is recorded as “binds”.

Consider EhHSP70 (EHI_061640), for which the binding result in assay [1] is reported as “binds”. On to “Rab family GTPase (EHI_108610) (from UniProt A0A8U0WPG2 1-205) (enzyme)”, for which the binding entry in assay [3] and in assay [2] was “binds” each time. For EhGrainin 2 (from UniProt B1N3T3), in assay [2], the binding result is “binds”.
